In PMC6416337:
Results are given in words; binding and its absence hold for the method and conditions named. Binding seen in cells or lysates may run through a third protein. Here binding means that the protein was enriched with, or labelled near, the bait; the list need not be complete. Tags and fused reporters may be left off the sequences shown.

Biological target: T1, Flag-HA-SOS2 (Pro35S:Flag-HA-SOS2 in sos2-2) (Arabidopsis) (UniProt Q9LDI3)
T1 sequence: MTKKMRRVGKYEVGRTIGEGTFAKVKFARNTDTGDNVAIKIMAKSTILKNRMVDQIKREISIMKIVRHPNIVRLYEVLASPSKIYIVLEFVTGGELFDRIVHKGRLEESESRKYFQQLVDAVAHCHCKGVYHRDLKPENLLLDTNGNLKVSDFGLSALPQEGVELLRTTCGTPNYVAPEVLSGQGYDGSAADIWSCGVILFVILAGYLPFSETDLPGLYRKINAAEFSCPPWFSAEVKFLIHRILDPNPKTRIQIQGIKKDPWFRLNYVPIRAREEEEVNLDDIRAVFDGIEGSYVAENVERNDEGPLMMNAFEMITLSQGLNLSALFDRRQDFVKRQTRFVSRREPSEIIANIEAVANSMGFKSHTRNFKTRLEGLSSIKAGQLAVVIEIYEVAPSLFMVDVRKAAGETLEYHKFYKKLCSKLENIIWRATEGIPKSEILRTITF
Assay: affinity purification with mass spectrometry; tagged SOS2 immunoprecipitated with anti-HA-conjugated agarose from 10-day-old transgenic seedlings (sos2-2 background); IP buffer 10 mM Tris pH 7.5, 0.5% Nonidet P-40, 2 mM EDTA, 150 mM NaCl; LTQ Orbitrap Velos

binding: binds
B1: SOS2-LIKE PROTEIN KINASE5 (PKS5), endogenous (protein, UniProt O22932 1-435)
chain: MPEIEIAAGSGDNNDALFGKYELGKLLGCGAFAKVFHARDRRTGQSVAVKILNKKKLLTNPALANNIKREISIMRRLSHPNIVKLHEVMATKSKIFFAMEFVKGGELFNKISKHGRLSEDLSRRYFQQLISAVGYCHARGVYHRDLKPENLLIDENGNLKVSDFGLSALTDQIRPDGLLHTLCGTPAYVAPEILSKKGYEGAKVDVWSCGIVLFVLVAGYLPFNDPNVMNMYKKIYKGEYRFPRWMSPDLKRFVSRLLDINPETRITIDEILKDPWFVRGGFKQIKFHDDEIEDQKVESSLEAVKSLNAFDLISYSSGLDLSGLFAGCSNSSGESERFLSEKSPEMLAEEVEGFAREENLRMKKKKEEEYGFEMEGQNGKFGIGICISRLNDLLVVVEARRRGGDGDCYKEMWNGKLRVQLIRVCDQTSSTNAAI
